Source: article PMC5427825

By UniProt entry, the sequences of proteins in these tests, tags left out. Where a name states a change or a piece, a line headed by the entry shows the natural chain unless it says otherwise.
UniProt Q969V5: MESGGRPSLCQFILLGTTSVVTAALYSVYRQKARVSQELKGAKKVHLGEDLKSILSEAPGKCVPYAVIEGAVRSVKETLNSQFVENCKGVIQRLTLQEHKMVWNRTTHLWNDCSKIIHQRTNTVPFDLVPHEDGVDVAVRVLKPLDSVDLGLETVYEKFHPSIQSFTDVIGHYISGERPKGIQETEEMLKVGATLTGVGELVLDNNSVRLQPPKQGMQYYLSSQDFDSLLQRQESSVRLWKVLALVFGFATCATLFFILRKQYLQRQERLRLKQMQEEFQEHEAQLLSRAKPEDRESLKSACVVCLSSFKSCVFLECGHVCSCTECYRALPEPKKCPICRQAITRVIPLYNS
UniProt O00429: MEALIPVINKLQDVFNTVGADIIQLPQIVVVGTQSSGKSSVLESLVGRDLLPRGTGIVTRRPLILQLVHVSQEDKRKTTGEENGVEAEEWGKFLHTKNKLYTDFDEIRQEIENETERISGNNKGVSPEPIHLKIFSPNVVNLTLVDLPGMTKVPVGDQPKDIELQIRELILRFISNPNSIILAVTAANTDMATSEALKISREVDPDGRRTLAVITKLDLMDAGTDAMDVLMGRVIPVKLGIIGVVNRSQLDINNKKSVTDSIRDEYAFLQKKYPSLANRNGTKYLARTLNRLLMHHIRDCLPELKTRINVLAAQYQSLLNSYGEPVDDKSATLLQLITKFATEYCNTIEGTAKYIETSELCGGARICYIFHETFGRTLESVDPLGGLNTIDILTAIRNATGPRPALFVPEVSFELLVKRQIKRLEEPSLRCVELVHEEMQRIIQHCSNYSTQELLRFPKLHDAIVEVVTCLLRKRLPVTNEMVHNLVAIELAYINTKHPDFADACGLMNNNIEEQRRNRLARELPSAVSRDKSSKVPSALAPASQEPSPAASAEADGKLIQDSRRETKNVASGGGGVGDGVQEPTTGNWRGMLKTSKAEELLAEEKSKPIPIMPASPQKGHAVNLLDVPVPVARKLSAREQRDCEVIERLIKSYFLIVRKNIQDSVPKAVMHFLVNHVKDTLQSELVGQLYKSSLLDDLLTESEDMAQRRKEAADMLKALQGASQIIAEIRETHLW
UniProt Q27J81: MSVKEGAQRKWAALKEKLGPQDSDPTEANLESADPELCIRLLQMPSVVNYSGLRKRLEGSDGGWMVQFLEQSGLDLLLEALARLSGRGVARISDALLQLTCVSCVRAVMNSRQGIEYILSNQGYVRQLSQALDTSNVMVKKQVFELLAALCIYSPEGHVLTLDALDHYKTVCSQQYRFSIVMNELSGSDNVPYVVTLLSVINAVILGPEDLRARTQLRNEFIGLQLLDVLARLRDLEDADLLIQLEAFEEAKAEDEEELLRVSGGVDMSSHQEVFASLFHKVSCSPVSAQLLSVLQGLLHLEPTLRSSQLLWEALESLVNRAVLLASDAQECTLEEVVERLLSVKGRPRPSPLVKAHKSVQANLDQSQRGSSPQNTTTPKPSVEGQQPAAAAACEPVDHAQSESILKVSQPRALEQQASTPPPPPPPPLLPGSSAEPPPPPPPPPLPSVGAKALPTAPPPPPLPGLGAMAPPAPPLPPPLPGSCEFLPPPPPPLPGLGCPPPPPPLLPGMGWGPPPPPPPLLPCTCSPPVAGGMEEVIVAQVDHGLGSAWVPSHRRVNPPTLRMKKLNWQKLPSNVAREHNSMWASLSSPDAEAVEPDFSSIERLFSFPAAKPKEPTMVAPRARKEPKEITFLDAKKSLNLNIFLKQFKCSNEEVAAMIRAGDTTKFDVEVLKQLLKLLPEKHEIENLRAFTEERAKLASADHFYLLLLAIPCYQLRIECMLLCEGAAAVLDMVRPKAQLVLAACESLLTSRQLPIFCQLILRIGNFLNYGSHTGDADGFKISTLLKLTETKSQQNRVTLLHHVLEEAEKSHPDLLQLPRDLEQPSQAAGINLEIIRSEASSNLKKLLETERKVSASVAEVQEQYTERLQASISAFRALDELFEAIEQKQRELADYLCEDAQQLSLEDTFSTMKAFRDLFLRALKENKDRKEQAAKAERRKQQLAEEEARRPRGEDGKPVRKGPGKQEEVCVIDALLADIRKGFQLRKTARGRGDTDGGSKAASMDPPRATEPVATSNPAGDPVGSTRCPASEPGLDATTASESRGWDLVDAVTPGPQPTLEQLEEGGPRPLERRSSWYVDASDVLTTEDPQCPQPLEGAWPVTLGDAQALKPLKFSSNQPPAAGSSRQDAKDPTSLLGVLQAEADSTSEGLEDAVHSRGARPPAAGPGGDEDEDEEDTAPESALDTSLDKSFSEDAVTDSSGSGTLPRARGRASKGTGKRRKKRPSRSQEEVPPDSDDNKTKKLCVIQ
UniProt P42224: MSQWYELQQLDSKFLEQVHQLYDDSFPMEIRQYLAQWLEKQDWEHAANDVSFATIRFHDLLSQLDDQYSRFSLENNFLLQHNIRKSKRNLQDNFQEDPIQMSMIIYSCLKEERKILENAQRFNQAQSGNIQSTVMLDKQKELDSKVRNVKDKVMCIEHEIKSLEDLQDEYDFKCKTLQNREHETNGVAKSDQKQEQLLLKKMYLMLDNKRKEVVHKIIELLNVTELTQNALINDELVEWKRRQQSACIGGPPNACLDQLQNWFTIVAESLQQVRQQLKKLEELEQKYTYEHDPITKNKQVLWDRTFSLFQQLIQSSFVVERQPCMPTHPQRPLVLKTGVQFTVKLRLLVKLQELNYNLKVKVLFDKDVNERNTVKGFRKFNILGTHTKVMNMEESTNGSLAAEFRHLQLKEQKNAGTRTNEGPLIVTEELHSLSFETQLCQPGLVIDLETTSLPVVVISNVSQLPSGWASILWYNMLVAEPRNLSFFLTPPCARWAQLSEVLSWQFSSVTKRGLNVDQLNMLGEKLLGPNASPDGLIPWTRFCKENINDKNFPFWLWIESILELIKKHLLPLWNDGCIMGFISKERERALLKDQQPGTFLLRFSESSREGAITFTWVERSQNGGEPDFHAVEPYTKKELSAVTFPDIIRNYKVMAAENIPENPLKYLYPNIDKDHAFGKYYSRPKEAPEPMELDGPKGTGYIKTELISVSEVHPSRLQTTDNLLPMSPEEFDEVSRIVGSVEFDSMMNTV
UniProt Q7Z434: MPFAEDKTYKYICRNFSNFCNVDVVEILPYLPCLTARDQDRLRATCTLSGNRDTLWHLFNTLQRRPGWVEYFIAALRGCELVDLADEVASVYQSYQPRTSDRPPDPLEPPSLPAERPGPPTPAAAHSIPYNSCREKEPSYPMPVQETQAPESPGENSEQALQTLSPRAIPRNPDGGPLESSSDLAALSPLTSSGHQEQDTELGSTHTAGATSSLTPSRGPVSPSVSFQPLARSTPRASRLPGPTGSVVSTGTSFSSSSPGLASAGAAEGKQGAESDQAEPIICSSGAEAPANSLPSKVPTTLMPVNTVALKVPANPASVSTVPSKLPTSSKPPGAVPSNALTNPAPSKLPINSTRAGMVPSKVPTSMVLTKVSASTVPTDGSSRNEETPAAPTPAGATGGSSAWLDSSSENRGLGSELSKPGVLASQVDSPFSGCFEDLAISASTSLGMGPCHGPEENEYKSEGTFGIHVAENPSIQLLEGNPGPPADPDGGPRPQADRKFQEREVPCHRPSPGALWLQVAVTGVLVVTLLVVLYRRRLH
UniProt O95786: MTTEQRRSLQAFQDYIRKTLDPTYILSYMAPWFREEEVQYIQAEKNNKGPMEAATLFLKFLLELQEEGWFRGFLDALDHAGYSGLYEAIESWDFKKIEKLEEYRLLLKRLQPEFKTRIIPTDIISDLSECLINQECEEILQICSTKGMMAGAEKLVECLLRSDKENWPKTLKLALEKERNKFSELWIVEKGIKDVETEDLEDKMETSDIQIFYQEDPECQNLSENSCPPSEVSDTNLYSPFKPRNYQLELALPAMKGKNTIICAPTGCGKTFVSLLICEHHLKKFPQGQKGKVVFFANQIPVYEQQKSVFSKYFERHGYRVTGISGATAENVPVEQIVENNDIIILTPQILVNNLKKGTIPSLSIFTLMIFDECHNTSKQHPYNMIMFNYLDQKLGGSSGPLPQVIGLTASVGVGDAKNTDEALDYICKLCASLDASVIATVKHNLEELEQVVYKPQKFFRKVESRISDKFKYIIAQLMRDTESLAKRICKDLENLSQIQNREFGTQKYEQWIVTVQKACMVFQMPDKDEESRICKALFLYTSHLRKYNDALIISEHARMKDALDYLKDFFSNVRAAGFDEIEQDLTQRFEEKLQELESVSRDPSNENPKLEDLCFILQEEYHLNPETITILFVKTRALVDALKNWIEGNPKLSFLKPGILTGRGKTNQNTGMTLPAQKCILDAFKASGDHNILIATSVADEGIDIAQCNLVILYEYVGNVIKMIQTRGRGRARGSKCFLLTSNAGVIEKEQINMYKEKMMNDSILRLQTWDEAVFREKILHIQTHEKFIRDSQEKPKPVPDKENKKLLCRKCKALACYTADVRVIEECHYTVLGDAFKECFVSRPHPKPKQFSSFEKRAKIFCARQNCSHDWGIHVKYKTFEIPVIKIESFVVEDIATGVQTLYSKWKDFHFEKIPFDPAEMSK

Target: mitochondrial anchored protein ligase MAPL fused to BirA* (R118G) and FLAG (MAPL-BirA-FLAG) (human) (UniProt Q969V5)
Experiment: proximity labelling

In the case of Drp1 (from UniProt O00429 1-736), the binding is reported as “binds”.

With INF2 (from UniProt Q27J81 1-1249) the binding was “binds”.

For STAT1 (from UniProt P42224 1-750), the binding was “binds”.

With “mitochondrial antiviral signaling protein MAVS (from UniProt Q7Z434 1-540)” the binding was “binds”.

For “retinoic acid-inducible gene I (RIG-I) (from UniProt O95786 1-925)”, the binding was “binds”.

B1: IFIT2 (protein, UniProt P09913 1-472)
chain: MSENNKNSLESSLRQLKCHFTWNLMEGENSLDDFEDKVFYRTEFQNREFKATMCNLLAYLKHLKGQNEAALECLRKAEELIQQEHADQAEIRSLVTWGNYAWVYYHMGRLSDVQIYVDKVKHVCEKFSSPYRIESPELDCEEGWTRLKCGGNQNERAKVCFEKALEKKPKNPEFTSGLAIASYRLDNWPPSQNAIDPLRQAIRLNPDNQYLKVLLALKLHKMREEGEEEGEGEKLVEEALEKAPGVTDVLRSAAKFYRRKDEPDKAIELLKKALEYIPNNAYLHCQIGCCYRAKVFQVMNLRENGMYGKRKLLELIGHAVAHLKKADEANDNLFRVCSILASLHALADQYEDAEYYFQKEFSKELTPVAKQLLHLRYGNFQLYQMKCEDKAIHHFIEGVKINQKSREKEKMKDKLQKIAKMRLSKNGADSEALHVLAFLQELNEKMQQADEDSERGLESGSLIPSASSWNGE
For B1, the binding was “binds”.

B2: HERC5 (enzyme, UniProt Q9UII4 1-1024)
chain: MERRSRRKSRRNGRSTAGKAAATQPAKSPGAQLWLFPSAAGLHRALLRRVEVTRQLCCSPGRLAVLERGGAGVQVHQLLAGSGGARTPKCIKLGKNMKIHSVDQGAEHMLILSSDGKPFEYDNYSMKHLRFESILQEKKIIQITCGDYHSLALSKGGELFAWGQNLHGQLGVGRKFPSTTTPQIVEHLAGVPLAQISAGEAHSMALSMSGNIYSWGKNECGQLGLGHTESKDDPSLIEGLDNQKVEFVACGGSHSALLTQDGLLFTFGAGKHGQLGHNSTQNELRPCLVAELVGYRVTQIACGRWHTLAYVSDLGKVFSFGSGKDGQLGNGGTRDQLMPLPVKVSSSEELKLESHTSEKELIMIAGGNQSILLWIKKENSYVNLKRTIPTLNEGTVKRWIADVETKRWQSTKREIQEIFSSPACLTGSFLRKRRTTEMMPVYLDLNKARNIFKELTQKDWITNMITTCLKDNLLKRLPFHSPPQEALEIFFLLPECPMMHISNNWESLVVPFAKVVCKMSDQSSLVLEEYWATLQESTFSKLVQMFKTAVICQLDYWDESAEENGNVQALLEMLKKLHRVNQVKCQLPESIFQVDELLHRLNFFVEVCRRYLWKMTVDASENVQCCVIFSHFPFIFNNLSKIKLLHTDTLLKIESKKHKAYLRSAAIEEERESEFALRPTFDLTVRRNHLIEDVLNQLSQFENEDLRKELWVSFSGEIGYDLGGVKKEFFYCLFAEMIQPEYGMFMYPEGASCMWFPVKPKFEKKRYFFFGVLCGLSLFNCNVANLPFPLALFKKLLDQMPSLEDLKELSPDLGKNLQTLLDDEGDNFEEVFYIHFNVHWDRNDTNLIPNGSSITVNQTNKRDYVSKYINYIFNDSVKAVYEEFRRGFYKMCDEDIIKLFHPEELKDVIVGNTDYDWKTFEKNARYEPGYNSSHPTIVMFWKAFHKLTLEEKKKFLVFLTGTDRLQMKDLNNMKITFCCPESWNERDPIRALTCFSVLFLPKYSTMETVEEALQEAINNNRGFG
In the case of B2, the binding is reported as “binds”.

B3: Mff (protein, UniProt Q9GZY8 1-342)
chain: MSKGTSSDTSLGRVSRAAFPSPTAAEMAEISRIQYEMEYTEGISQRMRVPEKLKVAPPNADLEQGFQEGVPNASVIMQVPERIVVAGNNEDVSFSRPADLDLIQSTPFKPLALKTPPRVLTLSERPLDFLDLERPPTTPQNEEIRAVGRLKRERSMSENAVRQNGQLVRNDSLWHRSDSAPRNKISRFQAPISAPEYTVTPSPQQARVCPPHMLPEDGANLSSARGILSLIQSSTRRAYQQILDVLDENRRPVLRGGSAAATSNPHHDNVRYGISNIDTTIEGTSDDLTVVDAASLRRQIIKLNRRLQLLEEENKERAKREMVMYSITVAFWLLNSWLWFRR
For B3, the binding was “binds”.

B4: IFN-inducible oligoadenylate synthetases-like OASL (protein, UniProt Q15646 1-514)
chain: MALMQELYSTPASRLDSFVAQWLQPHREWKEEVLDAVRTVEEFLRQEHFQGKRGLDQDVRVLKVVKVGSFGNGTVLRSTREVELVAFLSCFHSFQEAAKHHKDVLRLIWKTMWQSQDLLDLGLEDLRMEQRVPDALVFTIQTRGTAEPITVTIVPAYRALGPSLPNSQPPPEVYVSLIKACGGPGNFCPSFSELQRNFVKHRPTKLKSLLRLVKHWYQQYVKARSPRANLPPLYALELLTIYAWEMGTEEDENFMLDEGFTTVMDLLLEYEVICIYWTKYYTLHNAIIEDCVRKQLKKERPIILDPADPTLNVAEGYRWDIVAQRASQCLKQDCCYDNRENPISSWNVKRARDIHLTVEQRGYPDFNLIVNPYEPIRKVKEKIRRTRGYSGLQRLSFQVPGSERQLLSSRCSLAKYGIFSHTHIYLLETIPSEIQVFVKNPDGGSYAYAINPNSFILGLKQQIEDQQGLPKKQQQLEFQGQVLQDWLGLGIYGIQDSDTLILSKKKGEALFPAS
For B4, the binding was “binds”.

B5: IFIT1 (protein, UniProt P09914 1-478)
chain: MSTNGDDHQVKDSLEQLRCHFTWELSIDDDEMPDLENRVLDQIEFLDTKYSVGIHNLLAYVKHLKGQNEEALKSLKEAENLMQEEHDNQANVRSLVTWGNFAWMYYHMGRLAEAQTYLDKVENICKKLSNPFRYRMECPEIDCEEGWALLKCGGKNYERAKACFEKVLEVDPENPESSAGYAISAYRLDGFKLATKNHKPFSLLPLRQAVRLNPDNGYIKVLLALKLQDEGQEAEGEKYIEEALANMSSQTYVFRYAAKFYRRKGSVDKALELLKKALQETPTSVLLHHQIGLCYKAQMIQIKEATKGQPRGQNREKLDKMIRSAIFHFESAVEKKPTFEVAHLDLARMYIEAGNHRKAEENFQKLLCMKPVVEETMQDIHFHYGRFQEFQKKSDVNAIIHYLKAIKIEQASLTRDKSINSLKKLVLRKLRRKALDLESLSLLGFVYKLEGNMNEALEYYERALRLAADFENSVRQGP
For B5, the binding was “binds”.

Results are given in words; binding and its absence hold for the method and conditions named. In cells and extracts the contact can be indirect. Here binding means that the protein was enriched with, or labelled near, the bait; the list need not be complete.
